System: GNS166 cells
Test: Proteomic profiling
Format: cell-based
Conditions: 5 µM, p-value < 0.05

SMILES: O=C(/C=C/c1cccc(S(=O)(=O)n2ccc3cc(OCCCN4CCCCC4)ccc32)c1)NO [MTP150]
- downregulated proteins (proteomics): 629
- upregulated proteins (proteomics): 572

From PMC12845422, “Characterization of a Novel Family of Contilisant + Belinostat Multitarget Small Molecules in Glioblastoma” (Pharmaceuticals, 2025)
